The values that follow come from article PMC9513428.

Sequences of proteins named here, by UniProt entry; tags and fusion partners are left off. Residues count along the entry.
UniProt Q15059, residues 24-416: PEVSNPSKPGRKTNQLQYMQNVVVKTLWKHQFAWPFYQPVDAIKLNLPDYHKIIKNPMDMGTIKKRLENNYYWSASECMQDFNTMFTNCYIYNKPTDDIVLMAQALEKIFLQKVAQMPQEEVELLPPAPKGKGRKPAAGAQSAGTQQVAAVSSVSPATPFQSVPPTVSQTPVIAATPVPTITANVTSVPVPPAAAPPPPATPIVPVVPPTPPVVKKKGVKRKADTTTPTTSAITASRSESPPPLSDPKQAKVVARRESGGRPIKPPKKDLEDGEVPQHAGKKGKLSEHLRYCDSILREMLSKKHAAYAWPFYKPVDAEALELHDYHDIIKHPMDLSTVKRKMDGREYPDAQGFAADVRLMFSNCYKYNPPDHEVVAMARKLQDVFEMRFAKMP
UniProt Q04206: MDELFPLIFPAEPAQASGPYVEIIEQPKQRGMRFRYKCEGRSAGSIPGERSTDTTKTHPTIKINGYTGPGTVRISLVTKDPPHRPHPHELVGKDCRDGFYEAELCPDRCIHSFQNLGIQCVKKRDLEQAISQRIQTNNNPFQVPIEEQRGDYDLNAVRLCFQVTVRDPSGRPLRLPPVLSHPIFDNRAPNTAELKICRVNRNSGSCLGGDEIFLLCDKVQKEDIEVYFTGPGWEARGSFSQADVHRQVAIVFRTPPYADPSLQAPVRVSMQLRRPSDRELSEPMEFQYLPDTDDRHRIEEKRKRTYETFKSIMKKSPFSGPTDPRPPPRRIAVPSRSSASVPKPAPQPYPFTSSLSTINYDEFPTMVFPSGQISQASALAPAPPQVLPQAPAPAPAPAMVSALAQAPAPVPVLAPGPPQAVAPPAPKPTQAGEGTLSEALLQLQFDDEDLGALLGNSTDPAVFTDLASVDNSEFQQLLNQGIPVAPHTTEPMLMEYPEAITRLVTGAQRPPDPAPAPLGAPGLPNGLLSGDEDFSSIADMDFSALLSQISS

The assay addresses HaloTag-BRD3 tandem bromodomain construct (residues 24-416) (UniProt Q15059). Briefly: FRET or BRET; NanoBRET in living INS 832/13 cells co-transfected with the HaloTag construct (4 μg) and NanoLuc-p65 (0.4 μg); HaloTag ligand Janelia Fluor 585 100 nM, 18 h at 37°C; DMSO vehicle; read-out 610/450 nm ratio in milliBRET units.

No constants are given. Whether binding was seen depends on the method and setting. In cells and extracts the contact can be indirect.

Regarding “full-length NanoLuc-p65 (from UniProt Q04206 1-551)”, the binding entry is reported as “no binding”.
